Results from article PMC10421354.
No constants are given. Whether binding was seen depends on the method and setting. Binding seen in cells or lysates may run through a third protein. Some results given as binding are weak or reduced against the parent protein; the word gives no strength. Sequences can lack the tags named with a protein.

T1: nVenus-NSP2 (Arabidopsis thaliana) (UniProt O49326)
T1 sequence: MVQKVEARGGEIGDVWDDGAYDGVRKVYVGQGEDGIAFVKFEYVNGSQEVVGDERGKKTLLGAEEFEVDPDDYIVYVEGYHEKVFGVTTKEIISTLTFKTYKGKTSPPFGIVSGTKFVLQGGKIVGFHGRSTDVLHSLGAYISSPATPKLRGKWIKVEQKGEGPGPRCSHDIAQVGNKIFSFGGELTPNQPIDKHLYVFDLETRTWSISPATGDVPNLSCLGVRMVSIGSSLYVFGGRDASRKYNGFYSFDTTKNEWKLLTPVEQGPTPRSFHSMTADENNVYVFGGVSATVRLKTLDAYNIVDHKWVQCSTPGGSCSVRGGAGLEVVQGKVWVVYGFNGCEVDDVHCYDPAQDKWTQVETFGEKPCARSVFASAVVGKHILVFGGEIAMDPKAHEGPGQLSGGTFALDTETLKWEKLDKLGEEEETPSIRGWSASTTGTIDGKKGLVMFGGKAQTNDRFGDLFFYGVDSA

T2: MPK3-GFP (Arabidopsis thaliana) (UniProt Q39023)
T2 sequence: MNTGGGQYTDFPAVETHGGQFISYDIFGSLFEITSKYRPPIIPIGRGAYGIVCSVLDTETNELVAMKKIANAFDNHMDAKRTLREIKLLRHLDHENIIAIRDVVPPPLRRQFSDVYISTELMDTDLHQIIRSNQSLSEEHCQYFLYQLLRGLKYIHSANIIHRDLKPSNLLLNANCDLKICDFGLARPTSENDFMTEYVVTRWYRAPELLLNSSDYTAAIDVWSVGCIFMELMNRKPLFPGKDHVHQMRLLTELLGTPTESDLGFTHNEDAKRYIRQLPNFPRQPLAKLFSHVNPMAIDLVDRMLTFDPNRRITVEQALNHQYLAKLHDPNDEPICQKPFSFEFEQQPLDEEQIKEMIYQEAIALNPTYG


Key:
[1] = molecular target: T1, nVenus-NSP2 (Arabidopsis thaliana); assay: split reporter; BiFC; cCFP-MPK3 and nVenus-NSP2 co-infiltrated in N. benthamiana leaves; signal read by confocal microscopy 48-72 h after infiltration
[2] = molecular target: T2, MPK3-GFP (Arabidopsis thaliana); assay: co-IP; NSP2-MYC co-expressed with MPK3-GFP in N. benthamiana; protein extract incubated with anti-GFP nanobody agarose beads; detected by anti-GFP and anti-MYC blots

| binding [1] | binding [2] | Binder |
| --- | --- | --- |
| binds | – | cCFP-MPK3 (protein, UniProt Q39023 1-370) MNTGGGQYTDFPAVETHGGQFISYDIFGSLFEITSKYRPPIIPIGRGAYGIVCSVLDTETNELVAMKKIANAFDNHMDAKRTLREIKLLRHLDHENIIAIRDVVPPPLRRQFSDVYISTELMDTDLHQIIRSNQSLSEEHCQYFLYQLLRGLKYIHSANIIHRDLKPSNLLLNANCDLKICDFGLARPTSENDFMTEYVVTRWYRAPELLLNSSDYTAAIDVWSVGCIFMELMNRKPLFPGKDHVHQMRLLTELLGTPTESDLGFTHNEDAKRYIRQLPNFPRQPLAKLFSHVNPMAIDLVDRMLTFDPNRRITVEQALNHQYLAKLHDPNDEPICQKPFSFEFEQQPLDEEQIKEMIYQEAIALNPTYG |
| – | binds | NSP2-MYC (protein, UniProt O49326 1-471) MVQKVEARGGEIGDVWDDGAYDGVRKVYVGQGEDGIAFVKFEYVNGSQEVVGDERGKKTLLGAEEFEVDPDDYIVYVEGYHEKVFGVTTKEIISTLTFKTYKGKTSPPFGIVSGTKFVLQGGKIVGFHGRSTDVLHSLGAYISSPATPKLRGKWIKVEQKGEGPGPRCSHDIAQVGNKIFSFGGELTPNQPIDKHLYVFDLETRTWSISPATGDVPNLSCLGVRMVSIGSSLYVFGGRDASRKYNGFYSFDTTKNEWKLLTPVEQGPTPRSFHSMTADENNVYVFGGVSATVRLKTLDAYNIVDHKWVQCSTPGGSCSVRGGAGLEVVQGKVWVVYGFNGCEVDDVHCYDPAQDKWTQVETFGEKPCARSVFASAVVGKHILVFGGEIAMDPKAHEGPGQLSGGTFALDTETLKWEKLDKLGEEEETPSIRGWSASTTGTIDGKKGLVMFGGKAQTNDRFGDLFFYGVDSA |
